This is an account of results in paper PMC9753400, “Conformational alteration in glycan induces phospholipase Cβ1 activation and angiogenesis” (Journal of Biomedical Science, 2022).

Assay [1] concerns the target T1, endogenous TRAX in HUVECs (human (endogenous in HUVECs)) (UniProt Q99598).
T1 sequence: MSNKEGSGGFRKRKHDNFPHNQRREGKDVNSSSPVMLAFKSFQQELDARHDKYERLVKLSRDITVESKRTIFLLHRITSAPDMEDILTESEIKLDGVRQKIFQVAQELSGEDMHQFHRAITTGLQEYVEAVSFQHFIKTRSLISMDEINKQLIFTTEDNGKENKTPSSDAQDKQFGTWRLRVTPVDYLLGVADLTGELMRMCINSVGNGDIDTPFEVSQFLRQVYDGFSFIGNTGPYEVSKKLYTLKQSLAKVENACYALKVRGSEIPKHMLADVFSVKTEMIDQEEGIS
The assay is described as follows: FRET or BRET; confocal FRET in fixed, permeabilised HUVECs; PLCβ1 stained with mouse antibody and Alexa488 anti-mouse IgG (donor), TRAX with rabbit antibody and Alexa555 anti-rabbit IgG (acceptor); cells treated with PBS, 20 μM SSEA3Cer for 3 h, or EVs (100 μg), EVs + mAb VK9, EVs + isotype antibody for 16 h.

Assay [2] has as its target T1, endogenous TRAX in HUVECs (human (endogenous in HUVECs)). The assay is described as follows: condition: only HUVECs incubated with 20 μM GHCer for 3 h; FRET or BRET; as a4, but HUVECs incubated with 20 μM GHCer for 3 h before fixation. (Bioluminescence resonance energy transfer reports proximity on the nanometre scale.)
Assay [3] deals with T2, recombinant C-terminal domain of PLCβ1 (PLCβ1-C), amino acids 890 to 1161 (human) (UniProt Q9NQ66).
T2 sequence: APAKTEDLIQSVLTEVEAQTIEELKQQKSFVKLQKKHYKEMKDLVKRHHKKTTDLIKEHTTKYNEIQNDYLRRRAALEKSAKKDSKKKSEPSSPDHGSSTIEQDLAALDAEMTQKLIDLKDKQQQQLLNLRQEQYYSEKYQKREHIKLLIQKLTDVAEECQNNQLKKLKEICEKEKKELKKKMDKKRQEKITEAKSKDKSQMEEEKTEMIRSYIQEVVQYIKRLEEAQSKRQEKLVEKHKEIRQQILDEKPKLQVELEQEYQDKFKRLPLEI
The assay is described as follows: ELISA; PLCβ1-C immobilised on microtiter plate, TRAX added at rising concentrations, detected by anti-TRAX antibody and AP-conjugated secondary antibody; with or without 20 μM GHCer; both purified. On the technique in general: ELISA stands for enzyme-linked immunosorbent assay.

The target of assay [4] is T3, recombinant human full-length translin-associated factor X (TRAX) (human) (UniProt Q99598).
T3 sequence: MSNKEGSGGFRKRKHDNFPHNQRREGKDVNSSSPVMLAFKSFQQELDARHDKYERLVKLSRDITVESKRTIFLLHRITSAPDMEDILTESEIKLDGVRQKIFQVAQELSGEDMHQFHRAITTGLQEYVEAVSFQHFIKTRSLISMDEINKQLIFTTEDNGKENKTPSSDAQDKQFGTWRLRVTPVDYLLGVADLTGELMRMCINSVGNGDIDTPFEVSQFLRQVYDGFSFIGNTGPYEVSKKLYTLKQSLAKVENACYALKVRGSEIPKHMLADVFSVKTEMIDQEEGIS
Briefly: ELISA; TRAX immobilised on microtiter plate, PLCβ1-C added at rising concentrations, detected by anti-PLCβ1 antibody and AP-conjugated secondary antibody; with or without 20 μM GHCer; both purified.

No constants are given. Whether binding was seen depends on the method and setting. For some of these results: Binding seen in cells or lysates may run through a third protein. Some results given as binding are weak or reduced against the parent protein; the word gives no strength.

B1: endogenous phospholipase C β1 (PLCβ1) in HUVECs (protein, UniProt Q9NQ66 1-1216)
chain: MAGAQPGVHALQLKPVCVSDSLKKGTKFVKWDDDSTIVTPIILRTDPQGFFFYWTDQNKETELLDLSLVKDARCGRHAKAPKDPKLRELLDVGNIGRLEQRMITVVYGPDLVNISHLNLVAFQEEVAKEWTNEVFSLATNLLAQNMSRDAFLEKAYTKLKLQVTPEGRIPLKNIYRLFSADRKRVETALEACSLPSSRNDSIPQEDFTPEVYRVFLNNLCPRPEIDNIFSEFGAKSKPYLTVDQMMDFINLKQRDPRLNEILYPPLKQEQVQVLIEKYEPNNSLARKGQISVDGFMRYLSGEENGVVSPEKLDLNEDMSQPLSHYFINSSHNTYLTAGQLAGNSSVEMYRQVLLSGCRCVELDCWKGRTAEEEPVITHGFTMTTEISFKEVIEAIAECAFKTSPFPILLSFENHVDSPKQQAKMAEYCRLIFGDALLMEPLEKYPLESGVPLPSPMDLMYKILVKNKKKSHKSSEGSGKKKLSEQASNTYSDSSSMFEPSSPGAGEADTESDDDDDDDDCKKSSMDEGTAGSEAMATEEMSNLVNYIQPVKFESFEISKKRNKSFEMSSFVETKGLEQLTKSPVEFVEYNKMQLSRIYPKGTRVDSSNYMPQLFWNAGCQMVALNFQTMDLAMQINMGMYEYNGKSGYRLKPEFMRRPDKHFDPFTEGIVDGIVANTLSVKIISGQFLSDKKVGTYVEVDMFGLPVDTRRKAFKTKTSQGNAVNPVWEEEPIVFKKVVLPTLACLRIAVYEEGGKFIGHRILPVQAIRPGYHYICLRNERNQPLTLPAVFVYIEVKDYVPDTYADVIEALSNPIRYVNLMEQRAKQLAALTLEDEEEVKKEADPGETPSEAPSEARTTPAENGVNHTTTLTPKPPSQALHSQPAPGSVKAPAKTEDLIQSVLTEVEAQTIEELKQQKSFVKLQKKHYKEMKDLVKRHHKKTTDLIKEHTTKYNEIQNDYLRRRAALEKSAKKDSKKKSEPSSPDHGSSTIEQDLAALDAEMTQKLIDLKDKQQQQLLNLRQEQYYSEKYQKREHIKLLIQKLTDVAEECQNNQLKKLKEICEKEKKELKKKMDKKRQEKITEAKSKDKSQMEEEKTEMIRSYIQEVVQYIKRLEEAQSKRQEKLVEKHKEIRQQILDEKPKLQVELEQEYQDKFKRLPLEILEFVQEAMKGKISEDSNHGSAPLSLSSDPGKVNHKTPSSEELGGDIPGKEFDTPL
As to B1, the results for the binding entry in assay [1] and in assay [2] were “binds” and “no binding”, respectively.

B2: recombinant human full-length translin-associated factor X (TRAX) (protein, UniProt Q99598 1-290)
chain: MSNKEGSGGFRKRKHDNFPHNQRREGKDVNSSSPVMLAFKSFQQELDARHDKYERLVKLSRDITVESKRTIFLLHRITSAPDMEDILTESEIKLDGVRQKIFQVAQELSGEDMHQFHRAITTGLQEYVEAVSFQHFIKTRSLISMDEINKQLIFTTEDNGKENKTPSSDAQDKQFGTWRLRVTPVDYLLGVADLTGELMRMCINSVGNGDIDTPFEVSQFLRQVYDGFSFIGNTGPYEVSKKLYTLKQSLAKVENACYALKVRGSEIPKHMLADVFSVKTEMIDQEEGIS
For B2, the binding entry in assay [3] is on record as “binds”.

B3: recombinant C-terminal domain of PLCβ1 (PLCβ1-C), amino acids 890 to 1161 (domain or fragment, human, UniProt Q9NQ66 890-1161, looked up)
chain: APAKTEDLIQSVLTEVEAQTIEELKQQKSFVKLQKKHYKEMKDLVKRHHKKTTDLIKEHTTKYNEIQNDYLRRRAALEKSAKKDSKKKSEPSSPDHGSSTIEQDLAALDAEMTQKLIDLKDKQQQQLLNLRQEQYYSEKYQKREHIKLLIQKLTDVAEECQNNQLKKLKEICEKEKKELKKKMDKKRQEKITEAKSKDKSQMEEEKTEMIRSYIQEVVQYIKRLEEAQSKRQEKLVEKHKEIRQQILDEKPKLQVELEQEYQDKFKRLPLEI
notes: phospholipase C β1 (PLCβ1), human, C-terminal domain, residues 890-1161, cDNA from HUVECs, in pET-21d; Removal of the tag is not mentioned; also called recombinant C-terminus of PLCβ1; source: E. coli BL21 (DE3) pLys, purified (HisTrap FF, DEAE-Sepharose, SP-Sepharose)
As for B3, in assay [4], the binding result is reported as “binds”.
